Test results as given in patent WO2017102789A1.
These are yes or no findings as the source states them, for the method shown. Binding seen in cells or lysates may run through a third protein. Some binding calls cover weakened binding; strength is not graded here.

The chains behind the UniProt entries cited, without tags or fusion partners. Where a name states a change or a piece, a line headed by the entry shows the natural chain unless it says otherwise.
UniProt P03372: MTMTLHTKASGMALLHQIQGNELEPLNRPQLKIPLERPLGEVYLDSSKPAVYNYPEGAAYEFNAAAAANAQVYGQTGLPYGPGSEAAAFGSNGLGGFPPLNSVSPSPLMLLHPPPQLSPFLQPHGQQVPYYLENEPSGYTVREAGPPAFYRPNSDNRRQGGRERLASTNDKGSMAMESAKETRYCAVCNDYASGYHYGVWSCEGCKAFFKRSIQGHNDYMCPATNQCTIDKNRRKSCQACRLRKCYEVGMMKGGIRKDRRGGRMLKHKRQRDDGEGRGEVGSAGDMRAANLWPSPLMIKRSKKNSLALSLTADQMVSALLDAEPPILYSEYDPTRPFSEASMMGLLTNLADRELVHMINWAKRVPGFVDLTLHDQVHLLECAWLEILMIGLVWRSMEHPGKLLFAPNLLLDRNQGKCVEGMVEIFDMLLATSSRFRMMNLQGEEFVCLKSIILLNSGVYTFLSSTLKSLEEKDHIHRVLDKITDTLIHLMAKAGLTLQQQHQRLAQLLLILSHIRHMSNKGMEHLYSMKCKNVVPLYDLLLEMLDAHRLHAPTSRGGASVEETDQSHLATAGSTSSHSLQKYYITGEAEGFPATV
UniProt P21860: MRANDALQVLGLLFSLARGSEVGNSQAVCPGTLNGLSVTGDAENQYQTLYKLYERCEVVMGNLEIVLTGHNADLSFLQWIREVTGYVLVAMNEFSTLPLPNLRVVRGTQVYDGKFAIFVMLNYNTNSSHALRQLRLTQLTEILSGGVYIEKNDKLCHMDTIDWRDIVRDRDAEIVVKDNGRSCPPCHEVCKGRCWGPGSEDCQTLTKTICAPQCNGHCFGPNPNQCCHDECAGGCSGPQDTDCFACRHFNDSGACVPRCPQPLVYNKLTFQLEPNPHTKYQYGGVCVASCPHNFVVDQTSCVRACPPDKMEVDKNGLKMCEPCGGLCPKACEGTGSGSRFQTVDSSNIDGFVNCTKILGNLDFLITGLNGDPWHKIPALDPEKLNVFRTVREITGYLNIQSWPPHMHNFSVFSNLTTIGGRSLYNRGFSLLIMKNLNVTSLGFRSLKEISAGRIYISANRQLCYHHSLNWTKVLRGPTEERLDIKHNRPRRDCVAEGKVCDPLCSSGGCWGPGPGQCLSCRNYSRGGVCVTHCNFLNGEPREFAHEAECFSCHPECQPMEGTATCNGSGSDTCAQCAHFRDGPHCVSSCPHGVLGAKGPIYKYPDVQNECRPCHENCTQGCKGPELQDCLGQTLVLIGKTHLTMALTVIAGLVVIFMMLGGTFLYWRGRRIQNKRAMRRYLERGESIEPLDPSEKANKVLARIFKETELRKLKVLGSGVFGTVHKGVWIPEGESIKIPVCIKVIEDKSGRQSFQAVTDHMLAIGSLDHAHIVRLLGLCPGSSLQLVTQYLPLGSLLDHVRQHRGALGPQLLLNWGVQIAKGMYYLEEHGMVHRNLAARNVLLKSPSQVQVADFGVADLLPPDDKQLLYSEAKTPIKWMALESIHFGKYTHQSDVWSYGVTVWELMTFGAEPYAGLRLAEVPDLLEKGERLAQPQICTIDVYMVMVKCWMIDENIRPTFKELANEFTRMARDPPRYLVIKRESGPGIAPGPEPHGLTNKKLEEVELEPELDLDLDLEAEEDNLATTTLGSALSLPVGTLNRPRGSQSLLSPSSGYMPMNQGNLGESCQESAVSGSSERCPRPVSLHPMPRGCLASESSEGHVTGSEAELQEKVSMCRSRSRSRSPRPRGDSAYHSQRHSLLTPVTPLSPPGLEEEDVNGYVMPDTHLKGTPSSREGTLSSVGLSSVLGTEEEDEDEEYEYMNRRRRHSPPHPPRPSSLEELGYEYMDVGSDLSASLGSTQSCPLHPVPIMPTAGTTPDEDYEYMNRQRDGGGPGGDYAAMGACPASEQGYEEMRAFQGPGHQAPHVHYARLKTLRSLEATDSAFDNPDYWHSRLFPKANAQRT

Key:
[1] = target: ERa (estrogen receptor) (human) (UniProt P03372); assay: summary of the co-immunoprecipitation experiments of Example 5
[2] = target: ERa (estrogen receptor) (human) (UniProt P03372); assay: co-immunoprecipitation from lysates of transfected HEK 293 cells (IP anti-HER2 trastuzumab, blot ERa; and IP anti-ERa, blot HER2)
[3] = target: ERa (estrogen receptor) (human) (UniProt P03372); assay: co-immunoprecipitation from lysates of transfected HEK 293 cells (IP anti-HER3, blot ERa; and IP anti-ERa, blot HER3), with and without HRG

Row | binding [1] | binding [2] | binding [3] | Substance
1 | binds | binds | – | HER2 expressed in HEK 293 cells (from UniProt P04626 23-1255) (receptor)
2 | binds | – | binds | HER3 expressed in cells (from UniProt P21860 20-1342) (receptor)
